Source: PubChem BioAssay AID743255 (National Center for Advancing Translational Sciences (NCATS), 2014)
About 910 (0.23%) of roughly 390,000 compounds were called active. Inconclusive means that the source gave no clear call. Such entries were picked first, then a sample of the others. Calls come from the whole dose curve; as a rule, active = well fitted inhibition curve with a large enough effect; inconclusive = small, poorly fitted or top-dose-only effect; inactive = no such curve, though single readings can be large or run the other way. Potencies beside an inconclusive call are fits to weak or partial responses and may not hold up.
% is set by controls: 0 for no effect and ±100 for the full control effect; potency is the fitted concentration of half-maximal effect.
Note: nearly all actives have a fitted effect of over 60% in size.

Chains of the proteins cited; added tags and fusions are not shown. Lines headed by an entry give the natural chain unless they say otherwise; changes in a name come on top.
UniProt O94782: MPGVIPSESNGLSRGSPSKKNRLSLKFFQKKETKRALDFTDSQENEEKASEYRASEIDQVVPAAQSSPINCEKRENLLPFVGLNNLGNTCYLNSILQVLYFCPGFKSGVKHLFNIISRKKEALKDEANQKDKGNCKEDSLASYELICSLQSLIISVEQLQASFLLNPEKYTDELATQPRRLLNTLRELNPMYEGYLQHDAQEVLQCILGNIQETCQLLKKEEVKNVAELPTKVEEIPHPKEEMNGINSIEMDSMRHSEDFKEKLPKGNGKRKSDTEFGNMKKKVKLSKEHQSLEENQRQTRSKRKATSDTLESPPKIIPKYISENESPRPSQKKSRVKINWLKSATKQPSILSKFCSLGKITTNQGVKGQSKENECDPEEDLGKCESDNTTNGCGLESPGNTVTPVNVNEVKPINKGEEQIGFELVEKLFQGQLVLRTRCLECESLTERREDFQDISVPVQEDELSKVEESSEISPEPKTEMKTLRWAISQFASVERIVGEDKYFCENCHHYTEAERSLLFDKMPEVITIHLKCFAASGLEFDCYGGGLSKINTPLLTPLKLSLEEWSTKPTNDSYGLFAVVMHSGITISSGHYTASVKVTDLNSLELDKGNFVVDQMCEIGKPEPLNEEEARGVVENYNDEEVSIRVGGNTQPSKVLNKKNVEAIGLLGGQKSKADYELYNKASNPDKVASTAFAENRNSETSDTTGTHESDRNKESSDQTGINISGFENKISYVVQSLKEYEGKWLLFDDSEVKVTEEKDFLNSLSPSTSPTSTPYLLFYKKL

What follows are compounds tested against Ubiquitin carboxyl-terminal hydrolase 1 (Homo sapiens) (UniProt O94782) (assay: Inhibitors of USP1/UAF1: Primary Screen). Details: recombinant USP1/UAF1, Ub-Rhodamine cleavage fluorescence; activity change, negative = inhibition: at 57.1 µM (top of the series).
Outline: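 USP1/UAF1 complex (1 nM) preincubated 15 min at room temperature with compound, then Ub-Rho substrate (150 nM final) added. Kinetic fluorescence at 480/540 nm over 6 reads at 60 s intervals; 50 mM HEPES pH 7.8, 0.5 mM EDTA, 0.1 mg/ml BSA, 1 mM TCEP, 0.01% Tween-20.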
For `Cc1ccc2[nH]c(=O)c(CN(C)C(=O)c3cccs3)cc2c1`, the “activity change, negative = inhibition” value was inactive: -19.4%.
In the case of `COc1ccc(-c2noc(N3CCC(C(=O)NCc4ccccc4Cl)CC3)n2)cc1`, the Potency is reported as inconclusive: 6.31 µM [inhibitor, partial curve].
For `Cc1cccc(N=C2NC(=O)/C(=C3/C(=O)N(C)c4ccccc43)S2)c1C`, the “activity change, negative = inhibition” value was inactive: -17.4%.
With `Cc1c(Cl)cnc(NC(=O)COC(=O)c2ccc([N+](=O)[O-])s2)c1Cl` the Potency was active: 17.8 µM.
`CCc1noc(C)c1C(=O)N1CCN(c2ccc([N+](=O)[O-])cc2)CC1` was tested, and the Potency was inconclusive: 0.112 µM [inhibitor, full curve, poor fit].
For `COc1cc(NC(=O)CCS(=O)(=O)c2ccc3c(c2)CC(=O)N3C)cc(OC)c1OC`, the “activity change, negative = inhibition” value was inactive: -23.5%.
With `CC(=O)n1nc(-c2ccc(Cl)cc2)nc1NCc1ccco1` the Potency was inconclusive: 17.8 µM [inhibitor, partial curve].
In the case of `N#Cc1c(/N=C/c2ccc(-c3ccccc3C(=O)O)o2)sc2c1CCCC2`, the “activity change, negative = inhibition” value is reported as inactive: -18.5%.
With `C/C(Cn1cnc([N+](=O)[O-])n1)=N/NC(=O)COc1ccccc1Cl` the Potency was inconclusive: 6.31 µM [inhibitor, single point].
For `Cc1ccccc1Nc1c(-c2cc(Br)ccc2F)nc2ccccn12`, the Potency was inconclusive: 31.6 µM [inhibitor, partial curve].
In the case of `O=C(Nc1ccc([N+](=O)[O-])cc1)Nc1ccc2c(c1)OCCO2`, the “activity change, negative = inhibition” value is reported as inactive: -5.84%.
In the case of `Cc1c(CCC(=O)NCCc2ccc(Cl)cc2)c(=O)oc2c(C)c(O)ccc12`, the Potency is reported as inconclusive: 11.2 µM [inhibitor, full curve, poor fit].
In the case of `O=C(O)CN1C(=O)/C(=C\c2cc(Br)ccc2OCc2ccccc2Cl)SC1=S`, the Potency is reported as inconclusive: 35.5 µM [inhibitor, partial curve].
With `CCCN(c1ccc(OCC)cc1)c1ncnc2nc[nH]c12` the Potency was inconclusive: 31.6 µM [inhibitor, partial curve].
With `NC(=O)CSc1nc2c(sc3ccccc32)c(=O)n1CCCC(=O)NCC1CCCO1` (configuration not stated) the Potency was inconclusive: 6.31 µM [inhibitor, full curve, poor fit].
For `Cc1ccc(CNC(=O)c2ccc(NC(=O)N3CCSc4ncccc43)cc2)cc1`, the “activity change, negative = inhibition” value was inactive: 1.28%.
In the case of `CCNC(=S)N1CCC(C(=O)c2ccc3c(c2)OCCO3)CC1`, the “activity change, negative = inhibition” value is reported as inactive: -23.9%.
`c1nnc(NCNc2nncs2)s1` was tested, and the Potency was inconclusive: 0.891 µM [inhibitor, full curve].
In the case of `O=C(NC(=S)Nc1ccc(Cl)c(C(=O)O)c1)c1cccc(COc2ccccc2)c1`, the Potency is reported as inconclusive: 100 µM [inhibitor, partial curve, poor fit].
`CCO[C@H]1OC(C(=O)O)=C[C@@H](c2csc3ccccc23)[C@@H]1CCCO` was tested, and the “activity change, negative = inhibition” value was inactive: -19.6%.
For `Oc1[nH]c2ccccc2c1N=NC(=S)N1CCOCC1`, the “activity change, negative = inhibition” value was inactive: -22%.
In the case of `Cc1ccccc1C(=O)Nc1nnc2n1CCS2`, the “activity change, negative = inhibition” value is reported as inactive: -18.9%.
`C=CCn1c(C)cc(-c2csc(NC)n2)c1C` was tested, and the “activity change, negative = inhibition” value was inactive: -14.2%.
For `CCOc1ccccc1C=NNc1ccc([N+](=O)[O-])cn1`, the Potency was inconclusive: 44.7 µM [inhibitor, partial curve, poor fit].
`O=C(C1CCCO1)N1CCN(Cc2c(O)ccc3ccccc23)CC1` (configuration not stated) was tested, and the “activity change, negative = inhibition” value was inactive: -7.49%.
`CC(C)NC(=O)N1CCN(S(=O)(=O)c2ccc3c(ccn3C)c2)CC1` was tested, and the “activity change, negative = inhibition” value was inactive: -9.65%.
With `COc1ccc(Nc2c3ccccc3nc3ccccc23)cc1` the “activity change, negative = inhibition” value was inactive: 3.17%.
In the case of `O=C(C[C@H]1C[C@H](C(=O)N2CCOCC2)[C@@]2(CCC3CCCC3)c3[nH]c4cc(-c5ccco5)ccc4c3CCN2C1=O)NCC12CC3CC(CC(C3)C1)C2`, the Potency is reported as inconclusive: 44.7 µM [inhibitor, partial curve, poor fit].
`Cc1cccc(OCC(=O)Nc2cc(-c3ccccc3F)nn2-c2ccccc2)c1` was tested, and the “activity change, negative = inhibition” value was inactive: -13.8%.
In the case of `O=C1CC2(CCCCCC2)Oc2ccc(Cl)cc21`, the Potency is reported as inconclusive: 7.94 µM [inhibitor, partial curve].
With `COc1ccc(S(=O)(=O)N2CCCN(CC(=O)Nc3ccc(OC)cc3OC)CC2)cc1` the “activity change, negative = inhibition” value was inactive: -4.88%.
`Nc1nc(Nc2ccc(Cl)cc2)nc(NCCO)c1[N+](=O)[O-]` was tested, and the Potency was inconclusive: 7.08 µM [inhibitor, single point].
With `CCCC(=O)NC(C)c1nc2ccccc2n1Cc1ccccc1` (configuration not stated) the Potency was inconclusive: 5.01 µM [inhibitor, partial curve].
`CC(C)CN1CCN=C1Nc1ccccc1` was tested, and the Potency was inconclusive: 0.251 µM [inhibitor, full curve, poor fit].
`CCCCN(CC(O)COc1cccc(C)c1)CC(O)COc1cccc(C)c1` (configuration not stated) was tested, and the Potency was inconclusive: 35.5 µM [inhibitor, partial curve].
With `COC/C=C/C1=CC2=CC(=O)C(C)(OC(=O)c3cnc4ccccc4n3)C(=O)C2=CN1CCN1CCOCC1` (configuration not stated) the Potency was inconclusive: 44.7 µM [inhibitor, partial curve, poor fit].
With `Nc1nc(-c2cc(Cl)cc(Cl)c2OC(F)F)cs1` the Potency was inconclusive: 35.5 µM [inhibitor, partial curve].
With `COc1ccc(C=NNc2ccc([N+](=O)[O-])cc2S(=O)(=O)Nc2ccccc2C(=O)O)cc1OC` the “activity change, negative = inhibition” value was inactive: -10.7%.
`COC(=O)CCCC1=CC2=CC(=O)C(C)(OC(=O)C3CCCC3)C(=O)C2=CO1` (configuration not stated) was tested, and the Potency was inconclusive: 35.5 µM [inhibitor, single point].
For `CC(C)c1ccc(Nc2ncnc3onc(-c4ccc(F)cc4)c23)cc1`, the Potency was inconclusive: 5.62 µM [inhibitor, partial curve].
`O=C(NCc1cccc(Cl)c1)c1ccncc1` was tested, and the Potency was inconclusive: 79.4 µM [inhibitor, partial curve, poor fit].
In the case of `COc1cccc(CNC(=O)c2ccc(S(=O)(=O)N3CCCCC3)cc2)c1`, the Potency is reported as inconclusive: 0.112 µM [inhibitor, full curve, poor fit].
In the case of `CCN1CCN(C(=S)c2ccc(OC)cc2)CC1`, the “activity change, negative = inhibition” value is reported as inactive: -1.86%.
In the case of `NC(=O)C(Cc1ccccc1)NS(=O)(=O)c1ccc(N2CCCC2=O)cc1` (configuration not stated), the Potency is reported as inconclusive: 35.5 µM [inhibitor, single point].
`COc1ccc([C@H]2CC(=O)C=C(c3cccc(CO)c3)C2)cc1OC` was tested, and the Potency was inconclusive: 0.1 µM [inhibitor, full curve, poor fit].
With `CCCCOC(=O)c1c(N)n(-c2ccc(OC)cc2OC)c2nc3ccccc3nc12` the Potency was inconclusive: 0.355 µM [inhibitor, full curve, poor fit].
In the case of `CC(C)C[C@@H](CSc1ccc(Br)cc1)N1CCN(C)CCC1=O`, the Potency is reported as inconclusive: 15.8 µM [inhibitor, partial curve].
In the case of `COc1ccc(NC(c2nnc(-c3ccccc3)o2)c2ccccc2F)cc1Cl` (configuration not stated), the Potency is reported as inconclusive: 5.01 µM [inhibitor, full curve].
`CCOCCCN(Cc1ccco1)S(=O)(=O)c1cc2c(cc1Cl)NC(=O)CO2` was tested, and the Potency was inconclusive: 1.78 µM [inhibitor, full curve].
In the case of `O=C(C[n+]1cc(-c2ccc(Cl)cc2)n2c1CCC2)N1c2ccccc2Sc2ccccc21`, the “activity change, negative = inhibition” value is reported as inactive: -20.7%.
`CC(=O)c1ccc(OCC(=O)N2CCCC2c2ccc3c(c2)OCCCO3)cc1` (configuration not stated) was tested, and the “activity change, negative = inhibition” value was inactive: -18.1%.
In the case of `COc1ccc(Cl)cc1C(=O)Nc1ccccc1N1CCN(C(=O)C(C)C)CC1`, the Potency is reported as inconclusive: 5.62 µM [inhibitor, partial curve].
For `CC(C)(C)OC(=O)N1CCC(NC(=O)c2[nH]cnc2C(=O)N[C@@H](Cc2ccccc2)C(=O)OCc2ccccc2)CC1`, the Potency was inconclusive: 5.62 µM [inhibitor, full curve].
`CCc1ccc(NC(=O)c2ccc(CN3CC(=O)N4CCCCC4C3=O)cc2)cc1` (configuration not stated) was tested, and the Potency was inconclusive: 35.5 µM [inhibitor, partial curve, poor fit].
`Cc1ccccc1N(CC(=O)NCCSc1ccccn1)S(=O)(=O)c1ccccc1` was tested, and the Potency was inconclusive: 7.08 µM [inhibitor, single point].
In the case of `CCc1ccc(OCC(=O)NC(Cc2c[nH]c3ccccc23)C(=O)O)cc1` (configuration not stated), the Potency is reported as inconclusive: 6.31 µM [inhibitor, single point].
With `O=C(NC1CC(=O)N(c2cccc(F)c2)C1)c1cccs1` (configuration not stated) the “activity change, negative = inhibition” value was inactive: -4.22%.
With `COc1cccc(OCc2nc3ccccc3n2CCOc2ccc(C)cc2)c1` the Potency was inconclusive: 25.1 µM [inhibitor, single point].
`CCN1CCN(S(=O)(=O)c2ccc(Cl)c(C(=O)N(C)Cc3ccco3)c2)CC1` was tested, and the Potency was inconclusive: 7.08 µM [inhibitor, full curve].
With `Cc1ccc(Cn2c(C(=O)O)c(CNCc3ccc(OC(C)C)cc3)c3ccc(C)cc32)cc1` the Potency was inconclusive: 1.26 µM [inhibitor, full curve].
For `COc1cccc(-n2c(=O)c3c(C)c(C)sc3n(CC(=O)NCCc3ccc(OC)c(OC)c3)c2=O)c1`, the Potency was inconclusive: 5.01 µM [inhibitor, single point].
For `CCCCC1=CC2=C(c3ccco3)C(=O)C(C)(OC(=O)c3ccc(OC)cc3)C(=O)C2=CN1Cc1ccccc1` (configuration not stated), the Potency was inconclusive: 31.6 µM [inhibitor, partial curve].
`CCc1ccc(CNC(=O)c2cc(=O)[nH]c3ccc(S(=O)(=O)N4CCCCC4)cc23)cc1` was tested, and the Potency was inconclusive: 1.41 µM [inhibitor, full curve].
For `CCN(Cc1ccc(OC)c(F)c1)C(=O)c1cc2ccccc2o1`, the Potency was inconclusive: 25.1 µM [inhibitor, single point].
For `CC(/C=N/NC(=O)c1cc(-c2ccncc2)nc2ccccc12)=C\c1ccco1`, the Potency was inconclusive: 28.2 µM [inhibitor, partial curve].
`Cc1ccc(C)c2sc(NC(=O)c3ccc(S(=O)(=O)N4CCC(C)CC4)cc3)nc12` was tested, and the Potency was inconclusive: 7.08 µM [inhibitor, full curve].
With `CCN1C(=O)c2ccccc2S(=O)c2ccc(C(=O)NCc3ccc(OC)cc3)cc21` (configuration not stated) the Potency was inconclusive: 1 µM [inhibitor, full curve].
